Measured values: article doi:10.1101/2025.05.22.655611
Results are given in words; binding and its absence hold for the method and conditions named. In cells and extracts the contact can be indirect. Some binding calls cover weakened binding; strength is not graded here.

Amino acid sequences for entries named in this document (tags omitted).
UniProt Q13283: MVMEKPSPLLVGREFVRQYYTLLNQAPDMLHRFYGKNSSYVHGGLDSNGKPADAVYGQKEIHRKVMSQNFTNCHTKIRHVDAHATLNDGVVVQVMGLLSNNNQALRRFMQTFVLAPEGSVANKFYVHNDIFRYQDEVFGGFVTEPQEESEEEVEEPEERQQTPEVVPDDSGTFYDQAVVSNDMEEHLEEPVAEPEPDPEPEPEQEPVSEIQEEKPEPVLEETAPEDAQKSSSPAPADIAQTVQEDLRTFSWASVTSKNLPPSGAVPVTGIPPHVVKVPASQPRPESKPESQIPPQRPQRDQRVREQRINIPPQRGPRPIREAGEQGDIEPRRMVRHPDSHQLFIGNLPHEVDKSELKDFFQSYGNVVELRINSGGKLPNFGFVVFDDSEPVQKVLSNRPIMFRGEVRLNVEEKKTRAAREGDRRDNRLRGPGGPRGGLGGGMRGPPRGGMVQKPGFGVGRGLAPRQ

Target: T1, eIF2A (human, endogenous in HEK 293T cells) (human (endogenous in HEK 293T)) (UniProt Q9BY44)
T1 sequence: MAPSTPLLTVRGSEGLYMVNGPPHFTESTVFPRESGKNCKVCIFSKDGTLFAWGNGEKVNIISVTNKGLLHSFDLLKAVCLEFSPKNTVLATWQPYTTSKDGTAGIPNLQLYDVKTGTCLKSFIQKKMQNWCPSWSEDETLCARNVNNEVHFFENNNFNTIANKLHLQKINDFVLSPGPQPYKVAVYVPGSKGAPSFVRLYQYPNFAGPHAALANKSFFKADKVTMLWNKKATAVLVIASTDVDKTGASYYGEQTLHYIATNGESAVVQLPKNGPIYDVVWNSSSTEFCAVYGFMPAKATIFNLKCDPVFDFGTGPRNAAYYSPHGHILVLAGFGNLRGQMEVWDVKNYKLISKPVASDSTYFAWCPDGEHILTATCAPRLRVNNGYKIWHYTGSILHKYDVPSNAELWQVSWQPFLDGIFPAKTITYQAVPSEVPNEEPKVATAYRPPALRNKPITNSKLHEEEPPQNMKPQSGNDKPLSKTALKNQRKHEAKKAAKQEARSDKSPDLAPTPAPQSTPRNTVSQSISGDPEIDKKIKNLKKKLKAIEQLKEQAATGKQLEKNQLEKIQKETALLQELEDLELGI
Test: co-IP

“G3BP1 (human, endogenous in HEK 293T cells) (from UniProt Q13283 1-466)” was tested, and the binding was “binds”.
